Reference: publication PMC5051681
These are yes or no findings as the source states them, for the method shown.

Key:
[1] = target: C1a domain fused to mCer (TEV product of the C1a - 10 nm - C2 sensor) (human) (UniProt P17252); assay: SEC; analytical size exclusion of C1a - 10 nm - C2 with or without pre-incubation with TEV protease; mobile phase EGTA buffered or 300 μM free calcium; mCer and mCit fluorescence of the eluant against molecular standards; both purified
[2] = target: C1a domain fused to mCer (TEV product of the C1a - 10 nm - C2 sensor) (human) (UniProt P17252); assay: single-particle fluorescence microscopy (spots on glass coverslips); mCer/mCit biosensors with or without pre-treatment with TEV protease, in free calcium (300 μM); mCer and mCit channels read apart with a dual view module; both purified

“C1a domain fused to mCer (TEV product of the C1a - 10 nm - C2 sensor) (from UniProt P17252 32-100) (domain or fragment)” was tested, and the binding [1] was “no binding” and the binding [2] was “no binding”.
